Data taken from patent US20250000942A1 (Prince Biotech, LLC, priority 2017, published 2025).
Some peptides are written in HELM: one residue between dots, names in brackets for other building blocks, links after the first $.

Test: peptide made by a vendor
Conditions: whole synthesis, HPLC and mass spectrometry

In the case of “PEPTIDE1{M.V.R.I.K.P.G.S.A.N.K.P.S.D.D}$$$$V2.0”, the “final HPLC purity” value is reported as over 95% and the final ms purity is reported as over 95%.
